For the data set, the system named is RopBss (Streptococcus salivarius DS85_40B). Nature of the data set: EMSA. Conditions: LCPss peptide 1 uM, text does not separate apo and LCPss-bound; EMSA: 0.5 uM oligoduplex, 20 mM Tris pH 7.5, 0.8 M NaCl, 12% glycerol, 100 uM zinc sulfate, 15 min 37 C, gel at 4 C; recombinant protein; protein details: N-terminal His6 (pET-28a); label: none (ethidium bromide stain). For orientation: In EMSA bound probe runs differently from free probe, usually more slowly.

For at least one entry, the source does not settle the construct or the ends of the probe. At least one verdict rests on a figure or table, not on a statement of the authors.

For the sequence “TGCCACCTCCATACTATGTAACATATTTGTGACTATGATACAT (double strand) [LCPss promoter RopBss site, 43-bp oligoduplex (EMSA)]”, the binding result was “binds”.

For the origin of these results see paper PMC10518010, “The leaderless communication peptide (LCP) class of quorum-sensing peptides is broadly distributed among Firmicutes” (Nature Communications, 2023).
